Screen size: about 400,000 compounds; about 13,000 (3.2%) were called active. This list was built around the results that the source calls inconclusive (neither active nor inactive); the mix of calls is not that of the screen. Calls come from the whole dose curve; as a rule, active = well fitted cell-killing curve with a large enough effect; inconclusive = small, poorly fitted or top-dose-only effect, or effect the other way; inactive = flat fitted curve, though single readings scatter. Potencies beside an inconclusive call are fits to weak or partial responses and may not hold up.
Experiment: qHTS assay for MDR1-selective chemotherapeutics: Primary screen using the drug-selected MDR subline cells KB-V1; note: nearly all actives have a fitted effect of over 60% in size
Conditions: KB-V1 MDR cells viability, CellTiter-Glo, 72 h; series mostly up to 46.1 µM
Method in brief: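 KB-V1 MDR subline cells in DMEM (phenol-red free, 10% FBS) exposed to compounds in qHTS concentration series for 72 h at 37 degrees C. Viability read by CellTiter-Glo luminescence; concentration-effect curves fitted after normalization and correction.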
Potency is the fitted concentration of half-maximal effect.

| Structure (SMILES) | Potency |
| --- | --- |
| O=C(COC(=O)c1ccccc1Sc1ccc(C(F)(F)F)cc1[N+](=O)[O-])NC(=O)NC1CCCC1 | inactive |
| Cc1cc(NC(=S)NC(=O)c2ccco2)c2ccccc2n1 | inconclusive: 16.4 µM [cytotoxic, partial curve] |
| COCCN1C(=O)c2oc3ccc(C)cc3c(=O)c2C12C(=O)N(C)c1ccccc12 (stereo not drawn) | inactive |
| COC(=O)c1cc2oc3ccccc3c2n1Cc1nc(-c2cccc(C)c2)oc1C | inactive |
| Oc1ccccc1-c1n[nH]c(=S)n1Cc1ccco1 | inactive |
| Cc1ccccc1-c1nc(CN2CCSCC2)c(C)o1 | inconclusive: 16.4 µM [cytotoxic, partial curve, poor fit] |
| COc1ccccc1CNC(=O)c1cnc(SC)nc1C | inactive |
| COc1cc(CCC(=O)Nc2cccc(S(=O)(=O)N(C)C)c2)cc(OC)c1OC | active: 20.6 µM |
| CCOC(=O)CN1C(=O)C(=O)N(Cc2ccccc2F)C1=O | inactive |
| Cc1ccc(-c2ccc(C(=O)NCCCNC(=O)c3cnccn3)o2)cc1Cl | inconclusive: 13 µM [cytotoxic, single point] |
| COc1cccc(NS(=O)(=O)CC23CCC(CC2=O)C3(C)C)c1 (stereo not drawn) | inactive |
| COc1ccc(Cl)cc1NC(=O)C(C)N(C)Cc1cccc(Cl)c1Cl (stereo not drawn) | inconclusive: 20.6 µM [cytotoxic, single point] |
| CC(C)N(Cc1ccccc1)C(=O)C1CCCN(c2ncnc3onc(-c4ccc(F)cc4)c23)C1 (stereo not drawn) | inconclusive: 23.1 µM [cytotoxic, single point] |
| CCCCn1cc(S(=O)(=O)c2ccc(C)c(C)c2)c(=O)c2cc(F)c(N(CC)CC)cc21 | inconclusive: 29.1 µM [cytotoxic, single point] |
| Cc1c(Cl)ccc2c(C(=O)Nc3cc(C(C)(C)C)on3)cc(-c3ccccn3)nc12 | inactive |
| COc1cc([N+](=O)[O-])cc(/C=N/NC(=O)C(C)Nc2ccccc2C)c1O (stereo not drawn) | active: 11.6 µM |
| O=C(Nc1ccc(Cl)cn1)c1ccccc1-c1ccccc1 | inactive |
| CC1C(=O)N2CCCc3cc(NC(=O)C(=O)NCCCc4ccccc4)cc1c32 (stereo not drawn) | inconclusive: 14.6 µM [cytotoxic, partial curve] |
| Cc1cccc(NC(=O)COC(=O)c2ccccc2-c2nc3ccccc3s2)c1C | inconclusive: 18.4 µM [cytotoxic, single point] |
| Cc1ccc(N2C(=O)c3ccccc3C2=O)cc1C | inconclusive: 16.4 µM [rising, single point] |
| CN(C)N(C(=O)c1cc(-c2cccs2)nn1-c1ccccc1)C1CCS(=O)(=O)C1 (stereo not drawn) | inactive |
| CC(=O)Nc1cccc(/C(C)=N\NC(=O)c2ccc(Cn3nc([N+](=O)[O-])c(Cl)c3C)o2)c1 | inconclusive: 20.6 µM [rising, single point] |
| O=C(CSc1cccc[n+]1[O-])Nc1cccc(Oc2ccccc2)c1 | inconclusive: 20.6 µM [cytotoxic, single point] |
| COc1ccc(CCNC(=O)C(C)Sc2ccc(C)cc2)cc1OC (stereo not drawn) | inconclusive: 3.26 µM [cytotoxic, partial curve, poor fit] |

| Structure (SMILES) | Potency |
| --- | --- |
| CC1Cc2ccccc2N1S(=O)(=O)c1nnc(NC(=O)c2cccc(F)c2)s1 (stereo not drawn) | inactive |
| NC(=O)COc1ccc2cc(-c3ccc(F)cc3)c(=O)oc2c1 | inconclusive: 29.1 µM [rising, single point] |
| CCOC(=O)c1cnc(SCC(=O)N2CCN(c3ccccc3)CC2)nc1N | inconclusive: 18.4 µM [cytotoxic, partial curve] |
| Cc1ccc2c(c1)-c1onc(C(=O)N3CCN(c4cc(Cl)ccc4C)CC3)c1CO2 | inactive |
| CCCCC(=O)N1CCN(c2ccc(OC)cc2[N+](=O)[O-])CC1 | inconclusive: 13 µM [cytotoxic, partial curve] |
| COc1ccc(CNc2nc3ccccc3s2)cc1OC | inactive |
| CN1CCN(S(=O)(=O)c2cccc(C(=O)Oc3ccc(C(C)(C)C)cc3)c2)CC1 | inactive |
| O=C(CSc1ncn(-c2ccccc2)n1)Nc1nc2ccccc2s1 | active: 18.4 µM |
| Cc1cccc(OCCn2c(NC(=O)c3ccco3)nc3ccccc32)c1 | active: 2.31 µM |
| O=C(CSc1ccc2c(c1)OCCO2)N1CCN(c2ccccc2O)CC1 | inconclusive: 18.4 µM [cytotoxic, single point] |
| CCOC(=O)c1cnn(-c2ccccc2)c1-c1ccccc1 | inconclusive: 6.51 µM [cytotoxic, partial curve] |
| CN(C)S(=O)(=O)c1cccc(NC(=O)c2ccccc2OCc2ccc(F)cc2)c1 | inconclusive: 9.2 µM [cytotoxic, partial curve] |
| O=C1c2ccccc2NC(c2ccc(-c3cccc([N+](=O)[O-])c3)o2)N1O (stereo not drawn) | active: 2.31 µM |
| Cc1cc(C)c2cc(CN(CC3CCCO3)S(=O)(=O)c3ccc4c(c3)OCCO4)c(=O)[nH]c2c1 (stereo not drawn) | active: 16.4 µM |
| O=C(NC1CCCC1)C(c1ccsc1)N(C(=O)Cc1cccs1)c1ccccc1 (stereo not drawn) | inconclusive: 3.26 µM [cytotoxic, full curve] |
| CCn1nnc2cc(C(=O)Nc3ccc(C)c(Cl)c3)ccc21 | inconclusive: 18.4 µM [rising, partial curve] |
| O=C(N/N=C/c1ccc(-c2cccc(C(F)(F)F)c2)o1)c1ccccc1Br | inactive |
| CC1=C(C(=O)OC2CCCCC2)C(c2ccco2)C2=C(CC(C)(C)CC2=O)N1 (stereo not drawn) | inconclusive: 29.1 µM [cytotoxic, single point] |
| O=c1oc2cccnc2n1CCS(=O)(=O)c1ccc(F)cc1 | inactive |
| CCOC(=O)N1CCN(C(=S)NC(=O)c2ccc(F)cc2)CC1 | inactive |
| COc1ccc(CCNC(=O)C(NC(=O)OCc2ccccc2)C(C)C)cc1OC (stereo not drawn) | inconclusive: 32.6 µM [cytotoxic, single point] |
| COc1ccc(-c2noc(CN(C(=O)c3ccc4c(c3)OCO4)C(C)C)n2)cc1OC | inconclusive: 1.64 µM [cytotoxic, full curve] |
| CCN(Cc1ccccc1)C(=O)c1cc2c(=O)[nH]c3ccc(C)cc3c2s1 | inactive |
| CSCCC(C(=O)Nc1c(C)cccc1C)n1c(COc2ccc(C)cc2)nc2ccccc21 (stereo not drawn) | inconclusive: 6.51 µM [cytotoxic, partial curve] |

Copied from the entries so far for reference:

| Structure (SMILES) | Potency |
| --- | --- |
| COc1ccc(CNc2nc3ccccc3s2)cc1OC | inactive |
| CN1CCN(S(=O)(=O)c2cccc(C(=O)Oc3ccc(C(C)(C)C)cc3)c2)CC1 | inactive |
| O=C(CSc1ncn(-c2ccccc2)n1)Nc1nc2ccccc2s1 | active: 18.4 µM |

Source: PubChem BioAssay AID1347076 (National Center for Advancing Translational Sciences (NCATS), 2019)
